Experimental data: PubChem BioAssay AID1224828 (NIAID, 2016)
In all, the deposit lists about 17,000 reagents; below is a random part of them. 762 of all reagents (4.5%) count as active. 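Active calls include both raised and lowered p65 entry, mostly lowered; wells with fewer than 50 cells lack a z-score.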 Raw values are not corrected between plates. Unmarked entries are inactive. Reagent sequences are not shown.

Test: 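Regulators linking TLR4 signalling to p65 nuclear translocation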 (primary screen)
System: mouse RAW264.7 G9 macrophage reporter cells (GFP-p65, Tnf promoter-mCherry)
Reagents: siRNA pool against mouse genes, 100 nM
Duration: 2 days siRNA transfection, then 40 min LPS before fixation
Challenge: LPS (Salmonella minnesota R595) at 10 ng/ml
Read-out: 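Microscopy ratio of nuclear to perinuclear-ring GFP-p65 signal, scaled to the plate median; gene score is the average of two replicate robust z-scores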
Direction: p65 translocation robust z-score: higher = more nuclear NF-kappaB p65 after LPS than the plate median; nuclear/cytoplasmic p65 ratio: higher = more nuclear NF-kappaB p65
Rule for the call: 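Called active when z exceeds 3.3 or falls under -1.56 (median of Tlr4 controls), giving activity score of at least 50; no calls for control wells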
Meaning of the calls: active = hit (p65 shift raised or lowered); inactive = no clear change

After knock-down of Pnma3 (GeneID 245468) the results were nuclear/cytoplasmic p65 ratio, rep 1 = 1.19; nuclear/cytoplasmic p65 ratio, rep 2 = 1.01; low cell count flag fewer than 50 cells per well; well left out of scoring.
Knock-down of Ndufc1 (GeneID 66377) resulted in: p65 translocation robust z-score -0.89; nuclear/cytoplasmic p65 ratio, rep 1 = 1.63; nuclear/cytoplasmic p65 ratio, rep 2 = 1.47; low cell count flag enough cells to score.
Knock-down of Fbn1 (GeneID 14118) gave: p65 translocation robust z-score 0.49; nuclear/cytoplasmic p65 ratio, rep 1 = 1.57; nuclear/cytoplasmic p65 ratio, rep 2 = 1.4; low cell count flag enough cells to score.
Tlnrd1 (GeneID 80889) gave p65 translocation robust z-score 1.28; nuclear/cytoplasmic p65 ratio, rep 1 = 1.62; nuclear/cytoplasmic p65 ratio, rep 2 = 1.5; low cell count flag enough cells to score.
Knock-down of Tnk2 (GeneID 51789) resulted in: nuclear/cytoplasmic p65 ratio, rep 1 = 1.67; nuclear/cytoplasmic p65 ratio, rep 2 = 1.38; low cell count flag fewer than 50 cells per well; well left out of scoring.
Henmt1 (GeneID 66715) gave p65 translocation robust z-score 0.36; nuclear/cytoplasmic p65 ratio, rep 1 = 1.38; nuclear/cytoplasmic p65 ratio, rep 2 = 1.25; low cell count flag enough cells to score.
For Selenon (GeneID 74777) the deposit lists p65 translocation robust z-score 0.63; nuclear/cytoplasmic p65 ratio, rep 1 = 1.48; nuclear/cytoplasmic p65 ratio, rep 2 = 1.34; low cell count flag enough cells to score.
For Rhog (GeneID 56212), the entry reads p65 translocation robust z-score -0.9; nuclear/cytoplasmic p65 ratio, rep 1 = 1.41; nuclear/cytoplasmic p65 ratio, rep 2 = 1.37; low cell count flag enough cells to score.
Pdgfb (GeneID 18591) gave nuclear/cytoplasmic p65 ratio, rep 1 = 1.12; nuclear/cytoplasmic p65 ratio, rep 2 = 1.18; low cell count flag fewer than 50 cells per well; well left out of scoring.
Knock-down of Slc60a1 (GeneID 213006) gave: p65 translocation robust z-score -0.32; nuclear/cytoplasmic p65 ratio, rep 1 = 1.36; nuclear/cytoplasmic p65 ratio, rep 2 = 1.45; low cell count flag enough cells to score.
Knock-down of Zng1 (GeneID 226043) gave: p65 translocation robust z-score 0.9; nuclear/cytoplasmic p65 ratio, rep 1 = 1.76; nuclear/cytoplasmic p65 ratio, rep 2 = 1.94; low cell count flag enough cells to score.
Silencing of Rgs4 (GeneID 19736) resulted in: nuclear/cytoplasmic p65 ratio, rep 1 = 1.41; nuclear/cytoplasmic p65 ratio, rep 2 = 1.13; low cell count flag fewer than 50 cells per well; well left out of scoring.
With knock-down of Camk2d (GeneID 108058), the record shows p65 translocation robust z-score -1.1; nuclear/cytoplasmic p65 ratio, rep 1 = 1.43; nuclear/cytoplasmic p65 ratio, rep 2 = 1.31; low cell count flag enough cells to score.
Cabp1 (GeneID 29867) scored p65 translocation robust z-score -0.24; nuclear/cytoplasmic p65 ratio, rep 1 = 1.58; nuclear/cytoplasmic p65 ratio, rep 2 = 1.58; low cell count flag enough cells to score.
Tubb6 (GeneID 67951) gave p65 translocation robust z-score -0.16; nuclear/cytoplasmic p65 ratio, rep 1 = 1.57; nuclear/cytoplasmic p65 ratio, rep 2 = 1.61; low cell count flag enough cells to score.
For Kat6b (GeneID 54169), the entry reads p65 translocation robust z-score -0.3; nuclear/cytoplasmic p65 ratio, rep 1 = 1.71; nuclear/cytoplasmic p65 ratio, rep 2 = 1.57; low cell count flag enough cells to score.
Against Tpsg1 (GeneID 26945), the entry reads nuclear/cytoplasmic p65 ratio, rep 1 = 1.37; nuclear/cytoplasmic p65 ratio, rep 2 = 1.37; low cell count flag fewer than 50 cells per well; well left out of scoring.
After knock-down of Inhbb (GeneID 16324), the screen gave p65 translocation robust z-score 0.02; nuclear/cytoplasmic p65 ratio, rep 1 = 1.45; nuclear/cytoplasmic p65 ratio, rep 2 = 1.41; low cell count flag enough cells to score.
Prg2 (GeneID 19074) showed p65 translocation robust z-score 1.14; nuclear/cytoplasmic p65 ratio, rep 1 = 1.53; nuclear/cytoplasmic p65 ratio, rep 2 = 1.34; low cell count flag enough cells to score.
Silencing of Eomes (GeneID 13813) gave: p65 translocation robust z-score -0.95; nuclear/cytoplasmic p65 ratio, rep 1 = 1.44; nuclear/cytoplasmic p65 ratio, rep 2 = 1.24; low cell count flag enough cells to score.
Silencing of Prpf40b (GeneID 54614) resulted in: p65 translocation robust z-score 1.24; nuclear/cytoplasmic p65 ratio, rep 1 = 1.89; nuclear/cytoplasmic p65 ratio, rep 2 = 1.71; low cell count flag enough cells to score.

A few values from the entries so far.
Zng1 (GeneID 226043), p65 translocation robust z-score = 0.9
Result of Fbn1 (GeneID 14118) in “low cell count flag”: enough cells to score
